Paper PMC6179184, “Interaction of the Warsaw breakage syndrome DNA helicase DDX11 with the replication fork-protection factor Timeless promotes sister chromatid cohesion” (PLoS Genetics, 2018)
No constants are given. Whether binding was seen depends on the method and setting. For some assays here: In cells and extracts the contact can be indirect. Some results given as binding are weak or reduced against the parent protein; the word gives no strength. For some assays here: Sequences can lack the tags named with a protein.

Amino acid sequences for entries named in this document (tags omitted).
UniProt Q9UNS1: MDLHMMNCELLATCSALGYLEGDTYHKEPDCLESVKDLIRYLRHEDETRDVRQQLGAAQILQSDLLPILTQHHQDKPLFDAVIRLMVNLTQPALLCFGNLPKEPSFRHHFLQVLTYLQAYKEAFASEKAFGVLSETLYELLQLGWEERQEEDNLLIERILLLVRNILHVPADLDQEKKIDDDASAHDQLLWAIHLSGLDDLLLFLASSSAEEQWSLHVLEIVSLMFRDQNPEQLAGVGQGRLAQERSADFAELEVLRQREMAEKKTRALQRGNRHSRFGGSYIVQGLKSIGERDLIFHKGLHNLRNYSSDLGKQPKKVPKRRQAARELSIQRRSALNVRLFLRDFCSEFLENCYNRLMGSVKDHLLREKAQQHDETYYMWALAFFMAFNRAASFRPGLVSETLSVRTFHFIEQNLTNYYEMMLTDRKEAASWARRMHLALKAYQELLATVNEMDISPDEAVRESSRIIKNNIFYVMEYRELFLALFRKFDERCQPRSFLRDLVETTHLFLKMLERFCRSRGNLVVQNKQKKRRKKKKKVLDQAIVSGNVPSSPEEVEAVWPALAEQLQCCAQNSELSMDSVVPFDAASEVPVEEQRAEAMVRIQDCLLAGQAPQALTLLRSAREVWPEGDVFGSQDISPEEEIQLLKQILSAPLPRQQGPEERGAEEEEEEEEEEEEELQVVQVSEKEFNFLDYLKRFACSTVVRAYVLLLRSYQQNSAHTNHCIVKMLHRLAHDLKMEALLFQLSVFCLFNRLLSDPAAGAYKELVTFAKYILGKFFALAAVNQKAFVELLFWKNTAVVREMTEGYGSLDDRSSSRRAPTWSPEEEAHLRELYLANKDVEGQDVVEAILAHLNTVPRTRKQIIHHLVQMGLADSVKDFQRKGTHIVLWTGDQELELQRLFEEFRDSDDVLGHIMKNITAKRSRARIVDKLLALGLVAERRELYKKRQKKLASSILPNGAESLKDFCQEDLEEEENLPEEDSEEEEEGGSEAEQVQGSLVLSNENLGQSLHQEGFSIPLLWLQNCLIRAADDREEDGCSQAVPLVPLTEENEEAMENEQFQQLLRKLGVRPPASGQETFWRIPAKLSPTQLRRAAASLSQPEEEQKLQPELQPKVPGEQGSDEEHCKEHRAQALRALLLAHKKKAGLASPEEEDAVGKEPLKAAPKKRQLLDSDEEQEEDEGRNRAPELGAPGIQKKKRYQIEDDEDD

B1: endogenous DDX11 (HeLa nuclear fraction) (enzyme, UniProt Q96FC9 1-970)
chain: MANETQKVGAIHFPFPFTPYSIQEDFMAELYRVLEAGKIGIFESPTGTGKSLSLICGALSWLRDFEQKKREEEARLLETGTGPLHDEKDESLCLSSSCEGAAGTPRPAGEPAWVTQFVQKKEERDLVDRLKAEQARRKQREERLQQLQHRVQLKYAAKRLRQEEEERENLLRLSREMLETGPEAERLEQLESGEEELVLAEYESDEEKKVASRVDEDEDDLEEEHITKIYYCSRTHSQLAQFVHEVKKSPFGKDVRLVSLGSRQNLCVNEDVKSLGSVQLINDRCVDMQRSRHEKKKGAEEEKPKRRRQEKQAACPFYNHEQMGLLRDEALAEVKDMEQLLALGKEARACPYYGSRLAIPAAQLVVLPYQMLLHAATRQAAGIRLQDQVVIIDEAHNLIDTITGMHSVEVSGSQLCQAHSQLLQYVERYGKRLKAKNLMYLKQILYLLEKFVAVLGGNIKQNPNTQSLSQTGTELKTINDFLFQSQIDNINLFKVQRYCEKSMISRKLFGFTERYGAVFSSREQPKLAGFQQFLQSLQPRTTEALAAPADESQASTLRPASPLMHIQGFLAALTTANQDGRVILSRQGSLSQSTLKFLLLNPAVHFAQVVKECRAVVIAGGTMQPVSDFRQQLLACAGVEAERVVEFSCGHVIPPDNILPLVICSGISNQPLEFTFQKRELPQMMDEVGRILCNLCGVVPGGVVCFFPSYEYLRQVHAHWEKGGLLGRLAARKKIFQEPKSAHQVEQVLLAYSRCIQACGQERGQVTGALLLSVVGGKMSEGINFSDNLGRCVVMVGMPFPNIRSAELQEKMAYLDQTLSPRPGTPREGSGGEPVHEGRQPVHRQGHQAPEGFCQRSAPGPAICPAPCPGQAAGLDPSPCGGQSYLWPRHCCCAEVSPGEVGLFLMGNHTTAWRRALPLSCPLETVFVVGVVCGDPVTKVKPRRRVWSPECCQDPGTGVSSRRRKWGNPE

Experiments:
[1] = target: T1, endogenous Cdc45 (HeLa nuclear fraction) (human (endogenous in HeLa)) (UniProt O75419); test: co-IP; nuclear fraction (sonicated, micrococcal nuclease treated) of S phase control (C1) and DDX11-depleted (5-5) HeLa cells; anti-Cdc45 rabbit IgG or control IgG on Protein A Sepharose; 10 mM Hepes-NaOH pH 7.9, 50 mM NaCl, 1 mM DTT, 0.1% Triton X-100, 4 C; Western blot
T1 sequence: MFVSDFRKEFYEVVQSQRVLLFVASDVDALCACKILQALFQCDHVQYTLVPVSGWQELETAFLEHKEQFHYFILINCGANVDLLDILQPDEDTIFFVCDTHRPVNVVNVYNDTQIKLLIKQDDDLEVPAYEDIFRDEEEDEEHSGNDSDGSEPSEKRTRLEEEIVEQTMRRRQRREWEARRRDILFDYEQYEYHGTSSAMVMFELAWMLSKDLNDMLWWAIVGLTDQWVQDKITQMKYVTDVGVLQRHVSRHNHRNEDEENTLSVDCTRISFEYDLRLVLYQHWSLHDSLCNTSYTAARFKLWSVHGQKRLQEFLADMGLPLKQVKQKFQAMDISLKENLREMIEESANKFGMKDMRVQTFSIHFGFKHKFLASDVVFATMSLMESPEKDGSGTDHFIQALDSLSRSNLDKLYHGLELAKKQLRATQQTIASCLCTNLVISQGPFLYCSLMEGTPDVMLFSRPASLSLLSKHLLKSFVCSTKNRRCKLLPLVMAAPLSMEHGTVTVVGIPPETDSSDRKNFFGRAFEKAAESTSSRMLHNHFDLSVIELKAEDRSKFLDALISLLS

[2] = target: T2, DDX11-3xFlag KAK mutant (human) (UniProt Q96FC9); test: pull-down; mixtures of purified recombinant proteins (Timeless 0.8 ug or cohesin 1 ug, DDX11 0.5 ug, 200 uL) with anti-DDX11 antibody on Protein A beads; 25 mM Tris-HCl pH 7.5, 150 mM NaCl, 2 mM MgCl2, 1 mM DTT, 5% glycerol, 2 hr at 4 C; washes with 300 mM NaCl, 0.25% Triton X-100; immuno-blot; both purified
T2 sequence: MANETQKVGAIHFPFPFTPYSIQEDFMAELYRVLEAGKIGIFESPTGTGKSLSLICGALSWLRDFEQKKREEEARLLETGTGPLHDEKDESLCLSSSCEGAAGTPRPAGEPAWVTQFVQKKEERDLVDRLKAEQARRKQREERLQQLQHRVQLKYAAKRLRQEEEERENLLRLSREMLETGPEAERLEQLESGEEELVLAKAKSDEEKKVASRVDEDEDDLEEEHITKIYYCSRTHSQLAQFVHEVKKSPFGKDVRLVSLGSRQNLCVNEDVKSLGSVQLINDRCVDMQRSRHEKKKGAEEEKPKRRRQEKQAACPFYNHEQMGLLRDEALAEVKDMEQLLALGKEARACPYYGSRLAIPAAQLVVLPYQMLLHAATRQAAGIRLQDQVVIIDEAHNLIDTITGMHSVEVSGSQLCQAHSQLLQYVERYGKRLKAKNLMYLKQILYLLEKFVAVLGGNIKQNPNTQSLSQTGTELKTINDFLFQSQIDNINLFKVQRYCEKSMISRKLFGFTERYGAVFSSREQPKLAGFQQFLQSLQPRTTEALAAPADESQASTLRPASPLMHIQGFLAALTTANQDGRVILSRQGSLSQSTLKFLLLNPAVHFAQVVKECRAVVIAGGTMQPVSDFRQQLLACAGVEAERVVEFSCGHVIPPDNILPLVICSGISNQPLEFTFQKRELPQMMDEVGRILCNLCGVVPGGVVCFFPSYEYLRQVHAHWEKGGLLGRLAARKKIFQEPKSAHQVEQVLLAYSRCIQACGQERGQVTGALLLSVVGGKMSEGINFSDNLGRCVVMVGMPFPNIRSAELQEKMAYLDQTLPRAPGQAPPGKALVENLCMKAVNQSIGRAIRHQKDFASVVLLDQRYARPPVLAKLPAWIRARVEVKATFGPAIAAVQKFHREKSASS

[3] = target: T3, DDX11 Peptide # 32 with Glu201 substituted with lysine (human) (UniProt Q96FC9); test: peptide or protein array; PEPperCHIP microarrays of 15-residue DDX11 peptides on glass slides (tiling array, 13-residue overlap; full substitution scan of peptide # 32); Flag-Timeless at 50 ug/mL in PBS, 0.05% Tween 20, 1% BSA for 16 hr; detected with Cy3-labelled anti-Flag antibody; control array without Flag-Timeless; both purified
T3 sequence (peptide): EQLESGEEELVLAKY

[4] = target: T4, DDX11 Peptide # 32 with Tyr202 substituted with lysine (human) (UniProt Q96FC9); test: as above
T4 sequence (peptide): EQLESGEEELVLAEK

Row | Molecule | binding [1] | binding [2] | binding [3] | binding [4]
1 | endogenous Timeless (HeLa nuclear fraction) (from UniProt Q9UNS1 1-1208) | binds |  |  | 
2 | recombinant human Flag-Timeless (from UniProt Q9UNS1 1-1208) |  | binds weakly | no binding (tested: 50 ug/mL Flag-Timeless) | no binding (tested: 50 ug/mL Flag-Timeless)
3 | B1 | binds |  |  | 
